Reference: publication PMC12700831
Results are given in words; binding and its absence hold for the method and conditions named. In cells and extracts the contact can be indirect. A yes stands for co-enrichment or nearness to the bait. Other partners may have been found.

Protein sequences, listed by entry. Tags and fused reporters are not part of them.
UniProt Q5TEA3: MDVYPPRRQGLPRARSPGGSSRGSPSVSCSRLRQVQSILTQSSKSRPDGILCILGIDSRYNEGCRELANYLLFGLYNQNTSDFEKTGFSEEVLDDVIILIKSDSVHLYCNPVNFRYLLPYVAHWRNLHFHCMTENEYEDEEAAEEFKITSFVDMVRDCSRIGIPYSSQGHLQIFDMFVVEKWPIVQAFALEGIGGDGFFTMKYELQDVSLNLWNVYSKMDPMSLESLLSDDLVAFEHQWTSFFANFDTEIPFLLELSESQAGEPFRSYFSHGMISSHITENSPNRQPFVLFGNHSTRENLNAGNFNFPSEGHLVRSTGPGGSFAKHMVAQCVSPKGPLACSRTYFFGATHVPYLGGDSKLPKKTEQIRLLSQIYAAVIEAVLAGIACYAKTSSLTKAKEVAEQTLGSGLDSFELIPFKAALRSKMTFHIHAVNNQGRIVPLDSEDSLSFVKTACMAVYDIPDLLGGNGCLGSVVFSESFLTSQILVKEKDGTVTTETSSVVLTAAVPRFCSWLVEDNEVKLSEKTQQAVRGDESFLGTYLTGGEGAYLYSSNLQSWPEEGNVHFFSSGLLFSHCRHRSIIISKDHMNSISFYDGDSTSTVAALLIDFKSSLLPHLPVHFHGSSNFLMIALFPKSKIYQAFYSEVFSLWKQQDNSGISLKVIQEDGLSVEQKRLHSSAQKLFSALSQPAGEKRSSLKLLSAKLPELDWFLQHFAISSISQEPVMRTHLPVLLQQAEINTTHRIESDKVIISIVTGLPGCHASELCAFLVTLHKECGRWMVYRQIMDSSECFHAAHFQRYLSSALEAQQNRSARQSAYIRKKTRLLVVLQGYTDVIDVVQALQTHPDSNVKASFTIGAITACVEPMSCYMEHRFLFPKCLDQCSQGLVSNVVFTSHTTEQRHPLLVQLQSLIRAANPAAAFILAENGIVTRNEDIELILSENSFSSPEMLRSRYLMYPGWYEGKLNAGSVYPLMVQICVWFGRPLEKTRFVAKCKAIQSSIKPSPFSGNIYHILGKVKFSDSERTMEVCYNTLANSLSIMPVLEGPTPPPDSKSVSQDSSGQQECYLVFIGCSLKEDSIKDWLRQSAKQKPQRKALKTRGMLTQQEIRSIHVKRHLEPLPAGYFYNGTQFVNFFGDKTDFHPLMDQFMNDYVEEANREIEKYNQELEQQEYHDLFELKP
UniProt P36405: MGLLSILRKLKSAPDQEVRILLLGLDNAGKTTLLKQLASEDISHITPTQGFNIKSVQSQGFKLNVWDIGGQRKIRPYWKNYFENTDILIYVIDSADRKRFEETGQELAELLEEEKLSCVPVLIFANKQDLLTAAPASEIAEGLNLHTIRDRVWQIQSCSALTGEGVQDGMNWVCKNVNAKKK
UniProt Q13561: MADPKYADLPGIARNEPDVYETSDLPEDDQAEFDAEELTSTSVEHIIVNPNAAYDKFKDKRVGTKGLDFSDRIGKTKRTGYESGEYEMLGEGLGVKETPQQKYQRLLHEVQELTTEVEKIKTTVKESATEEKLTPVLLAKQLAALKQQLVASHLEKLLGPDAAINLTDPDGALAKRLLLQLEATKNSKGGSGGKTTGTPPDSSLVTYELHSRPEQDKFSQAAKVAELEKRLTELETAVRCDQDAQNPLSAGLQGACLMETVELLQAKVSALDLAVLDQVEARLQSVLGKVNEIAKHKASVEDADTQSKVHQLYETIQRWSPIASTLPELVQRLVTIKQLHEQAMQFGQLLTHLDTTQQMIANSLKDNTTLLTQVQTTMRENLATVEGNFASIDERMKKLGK
UniProt Q03135: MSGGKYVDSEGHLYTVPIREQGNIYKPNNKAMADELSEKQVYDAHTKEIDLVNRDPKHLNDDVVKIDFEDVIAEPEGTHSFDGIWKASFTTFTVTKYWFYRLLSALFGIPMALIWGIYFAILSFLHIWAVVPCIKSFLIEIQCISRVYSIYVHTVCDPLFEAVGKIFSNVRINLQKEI
UniProt Q13409: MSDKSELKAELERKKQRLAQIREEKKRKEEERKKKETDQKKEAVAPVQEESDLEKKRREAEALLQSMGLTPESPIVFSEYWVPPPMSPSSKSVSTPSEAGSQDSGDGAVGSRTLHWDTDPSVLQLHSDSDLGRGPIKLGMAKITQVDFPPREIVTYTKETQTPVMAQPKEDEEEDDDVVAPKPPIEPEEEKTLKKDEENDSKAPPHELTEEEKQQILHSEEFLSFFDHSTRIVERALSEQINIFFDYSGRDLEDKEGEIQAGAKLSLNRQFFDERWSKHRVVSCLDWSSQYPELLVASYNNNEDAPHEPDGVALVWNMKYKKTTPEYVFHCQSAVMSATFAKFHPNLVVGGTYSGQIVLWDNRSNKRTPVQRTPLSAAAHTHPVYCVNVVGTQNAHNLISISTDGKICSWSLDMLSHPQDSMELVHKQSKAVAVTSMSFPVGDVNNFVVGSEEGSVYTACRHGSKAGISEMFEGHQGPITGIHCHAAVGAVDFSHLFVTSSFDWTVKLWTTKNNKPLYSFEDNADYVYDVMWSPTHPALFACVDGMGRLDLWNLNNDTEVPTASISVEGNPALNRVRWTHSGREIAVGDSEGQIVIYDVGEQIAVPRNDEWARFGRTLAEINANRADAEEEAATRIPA
UniProt O43237: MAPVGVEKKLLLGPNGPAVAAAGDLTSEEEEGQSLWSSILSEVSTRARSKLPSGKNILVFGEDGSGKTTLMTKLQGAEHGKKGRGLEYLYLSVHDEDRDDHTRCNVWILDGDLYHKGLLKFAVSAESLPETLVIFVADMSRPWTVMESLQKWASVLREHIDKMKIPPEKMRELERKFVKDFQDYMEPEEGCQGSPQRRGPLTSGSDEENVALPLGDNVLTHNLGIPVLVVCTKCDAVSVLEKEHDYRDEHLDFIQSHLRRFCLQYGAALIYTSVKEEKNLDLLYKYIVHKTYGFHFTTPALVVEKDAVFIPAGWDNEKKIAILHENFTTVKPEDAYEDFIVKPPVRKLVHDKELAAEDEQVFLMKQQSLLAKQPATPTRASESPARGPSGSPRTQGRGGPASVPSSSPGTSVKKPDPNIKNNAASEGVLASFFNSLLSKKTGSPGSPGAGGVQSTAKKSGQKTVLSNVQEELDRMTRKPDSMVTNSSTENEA

Target: DNAAF9 (endogenous, human airway epithelial cells) (human (endogenous in HAECs)) (UniProt Q5TEA3)
Test: affinity purification with mass spectrometry; endogenous DNAAF9 immunoprecipitated from HAEC whole-cell lysates at ALI day 19 (ECs) and day 45 (MCs), anti-DNAAF9 against isotype-matched IgG, protein A/G beads, TMT labeling and MS

| Substance | binding |
| --- | --- |
| ARL3 (endogenous, human airway epithelial cells) (from UniProt P36405 1-182) | binds |
| DNAH5 (from UniProt Q8TE73 1-4624) | binds |
| DYNC1H1 (from UniProt Q14204 1-4646) | binds |
| DCTN2 (from UniProt Q13561 1-401) | binds |
| CAV1 (from UniProt Q03135 1-178) | binds |
| DYNC1I2 (from UniProt Q13409 1-638) | binds |
| DYNC1LI2 (from UniProt O43237 1-492) | binds |
